The results in this text go back to the supplement of paper PMC10849652.

The chains behind the UniProt entries cited, without tags or fusion partners. Where a name states a change or a piece, a line headed by the entry shows the natural chain unless it says otherwise.
UniProt Q9NRG4: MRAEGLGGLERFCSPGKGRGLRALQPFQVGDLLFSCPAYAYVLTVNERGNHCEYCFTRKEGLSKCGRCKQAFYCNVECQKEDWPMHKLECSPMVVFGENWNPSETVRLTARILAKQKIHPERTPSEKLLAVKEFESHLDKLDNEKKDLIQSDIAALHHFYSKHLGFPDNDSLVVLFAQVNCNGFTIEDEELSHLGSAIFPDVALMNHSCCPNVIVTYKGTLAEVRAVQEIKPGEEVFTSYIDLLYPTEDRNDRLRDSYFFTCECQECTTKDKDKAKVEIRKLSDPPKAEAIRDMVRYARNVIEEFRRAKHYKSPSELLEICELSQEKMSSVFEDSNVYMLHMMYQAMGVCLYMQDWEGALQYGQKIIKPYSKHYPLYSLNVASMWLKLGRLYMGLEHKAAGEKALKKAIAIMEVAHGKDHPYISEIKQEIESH
UniProt Q5SXM2: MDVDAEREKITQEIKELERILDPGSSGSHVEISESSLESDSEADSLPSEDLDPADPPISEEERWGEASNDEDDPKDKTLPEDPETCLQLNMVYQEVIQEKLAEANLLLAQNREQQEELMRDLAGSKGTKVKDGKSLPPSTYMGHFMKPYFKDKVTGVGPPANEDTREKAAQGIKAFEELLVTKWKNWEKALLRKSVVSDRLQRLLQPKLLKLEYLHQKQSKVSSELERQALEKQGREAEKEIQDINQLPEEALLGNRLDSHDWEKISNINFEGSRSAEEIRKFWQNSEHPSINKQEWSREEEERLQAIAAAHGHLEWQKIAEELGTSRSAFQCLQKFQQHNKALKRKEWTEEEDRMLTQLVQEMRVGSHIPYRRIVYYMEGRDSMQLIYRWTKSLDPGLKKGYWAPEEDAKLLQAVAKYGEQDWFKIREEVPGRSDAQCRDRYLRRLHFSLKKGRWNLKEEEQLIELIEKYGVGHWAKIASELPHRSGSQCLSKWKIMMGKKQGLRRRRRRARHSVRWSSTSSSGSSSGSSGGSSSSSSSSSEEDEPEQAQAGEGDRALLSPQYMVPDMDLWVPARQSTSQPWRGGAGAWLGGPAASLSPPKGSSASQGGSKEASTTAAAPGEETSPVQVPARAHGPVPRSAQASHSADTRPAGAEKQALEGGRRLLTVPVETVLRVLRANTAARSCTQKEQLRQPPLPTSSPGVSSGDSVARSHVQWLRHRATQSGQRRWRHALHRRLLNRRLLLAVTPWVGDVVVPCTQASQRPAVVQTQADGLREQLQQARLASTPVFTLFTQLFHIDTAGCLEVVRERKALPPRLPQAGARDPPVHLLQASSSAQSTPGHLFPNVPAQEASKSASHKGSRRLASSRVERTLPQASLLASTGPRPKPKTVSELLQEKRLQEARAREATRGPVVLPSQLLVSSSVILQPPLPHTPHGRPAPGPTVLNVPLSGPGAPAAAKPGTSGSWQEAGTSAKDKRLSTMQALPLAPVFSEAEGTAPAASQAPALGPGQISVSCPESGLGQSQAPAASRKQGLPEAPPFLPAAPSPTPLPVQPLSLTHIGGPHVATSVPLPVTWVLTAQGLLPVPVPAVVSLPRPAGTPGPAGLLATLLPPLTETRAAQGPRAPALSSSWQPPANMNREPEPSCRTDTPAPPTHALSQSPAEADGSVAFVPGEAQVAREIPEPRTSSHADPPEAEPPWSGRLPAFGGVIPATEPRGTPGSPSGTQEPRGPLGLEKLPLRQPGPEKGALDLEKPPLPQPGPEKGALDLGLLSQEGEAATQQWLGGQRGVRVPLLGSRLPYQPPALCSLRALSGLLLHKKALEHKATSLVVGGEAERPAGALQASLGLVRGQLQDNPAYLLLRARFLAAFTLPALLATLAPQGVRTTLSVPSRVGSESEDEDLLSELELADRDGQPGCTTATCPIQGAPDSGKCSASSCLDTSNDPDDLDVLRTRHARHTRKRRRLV
UniProt Q8IY18: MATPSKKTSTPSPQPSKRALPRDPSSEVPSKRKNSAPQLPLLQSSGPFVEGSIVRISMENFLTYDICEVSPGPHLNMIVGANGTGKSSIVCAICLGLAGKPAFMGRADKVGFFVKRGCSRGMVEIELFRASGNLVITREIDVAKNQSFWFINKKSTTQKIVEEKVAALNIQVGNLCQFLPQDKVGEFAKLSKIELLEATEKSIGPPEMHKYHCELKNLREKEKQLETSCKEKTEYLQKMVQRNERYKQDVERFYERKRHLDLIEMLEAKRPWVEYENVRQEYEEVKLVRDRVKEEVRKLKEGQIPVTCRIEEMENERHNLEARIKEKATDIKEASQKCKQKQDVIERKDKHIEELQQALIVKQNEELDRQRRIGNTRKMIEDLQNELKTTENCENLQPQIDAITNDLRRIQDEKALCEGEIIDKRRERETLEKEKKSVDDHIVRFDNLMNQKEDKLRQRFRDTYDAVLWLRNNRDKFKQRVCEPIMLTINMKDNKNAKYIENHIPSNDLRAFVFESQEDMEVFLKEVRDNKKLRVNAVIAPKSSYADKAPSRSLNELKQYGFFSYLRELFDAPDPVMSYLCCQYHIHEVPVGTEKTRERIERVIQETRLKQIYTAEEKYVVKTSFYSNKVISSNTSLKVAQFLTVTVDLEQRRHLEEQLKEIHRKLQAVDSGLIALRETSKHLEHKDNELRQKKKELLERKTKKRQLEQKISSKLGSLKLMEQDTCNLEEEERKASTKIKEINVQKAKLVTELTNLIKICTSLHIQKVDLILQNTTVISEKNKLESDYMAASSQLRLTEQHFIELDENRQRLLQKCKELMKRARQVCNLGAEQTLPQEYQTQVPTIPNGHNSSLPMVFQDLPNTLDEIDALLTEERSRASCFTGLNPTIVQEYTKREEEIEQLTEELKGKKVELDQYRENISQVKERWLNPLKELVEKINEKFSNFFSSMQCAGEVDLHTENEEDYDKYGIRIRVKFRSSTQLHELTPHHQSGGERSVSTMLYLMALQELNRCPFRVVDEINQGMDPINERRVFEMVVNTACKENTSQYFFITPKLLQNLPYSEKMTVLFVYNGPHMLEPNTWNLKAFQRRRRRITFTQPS
UniProt P62308, whole entry, looked up: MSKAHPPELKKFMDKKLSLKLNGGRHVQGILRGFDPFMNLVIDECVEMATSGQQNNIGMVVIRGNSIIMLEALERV
UniProt P09234, whole entry, looked up: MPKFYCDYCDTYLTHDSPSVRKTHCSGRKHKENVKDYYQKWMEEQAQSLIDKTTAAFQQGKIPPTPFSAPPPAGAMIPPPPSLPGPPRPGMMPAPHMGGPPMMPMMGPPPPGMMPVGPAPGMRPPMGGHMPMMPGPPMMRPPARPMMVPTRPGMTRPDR
UniProt P08294: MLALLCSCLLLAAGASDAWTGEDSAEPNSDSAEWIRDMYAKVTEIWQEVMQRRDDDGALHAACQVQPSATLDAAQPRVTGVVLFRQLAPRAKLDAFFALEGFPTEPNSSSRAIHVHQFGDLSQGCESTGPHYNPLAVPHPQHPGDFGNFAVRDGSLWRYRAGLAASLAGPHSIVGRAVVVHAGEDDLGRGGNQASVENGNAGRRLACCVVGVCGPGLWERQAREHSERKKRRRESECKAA
UniProt Q13596, whole entry, looked up: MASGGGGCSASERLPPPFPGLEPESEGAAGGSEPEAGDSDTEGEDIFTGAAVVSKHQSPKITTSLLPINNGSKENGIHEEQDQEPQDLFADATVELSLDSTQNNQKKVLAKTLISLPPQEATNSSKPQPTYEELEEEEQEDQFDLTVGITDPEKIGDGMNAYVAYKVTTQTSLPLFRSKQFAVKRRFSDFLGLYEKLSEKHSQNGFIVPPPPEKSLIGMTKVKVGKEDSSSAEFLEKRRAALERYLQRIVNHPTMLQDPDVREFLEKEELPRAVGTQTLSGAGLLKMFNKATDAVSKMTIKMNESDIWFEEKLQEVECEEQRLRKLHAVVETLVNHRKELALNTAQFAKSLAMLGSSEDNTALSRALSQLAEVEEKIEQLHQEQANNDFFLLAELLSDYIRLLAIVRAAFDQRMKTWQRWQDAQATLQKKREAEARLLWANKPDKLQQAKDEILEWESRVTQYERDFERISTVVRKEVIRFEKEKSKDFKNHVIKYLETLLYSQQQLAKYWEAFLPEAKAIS
UniProt Q9BT81: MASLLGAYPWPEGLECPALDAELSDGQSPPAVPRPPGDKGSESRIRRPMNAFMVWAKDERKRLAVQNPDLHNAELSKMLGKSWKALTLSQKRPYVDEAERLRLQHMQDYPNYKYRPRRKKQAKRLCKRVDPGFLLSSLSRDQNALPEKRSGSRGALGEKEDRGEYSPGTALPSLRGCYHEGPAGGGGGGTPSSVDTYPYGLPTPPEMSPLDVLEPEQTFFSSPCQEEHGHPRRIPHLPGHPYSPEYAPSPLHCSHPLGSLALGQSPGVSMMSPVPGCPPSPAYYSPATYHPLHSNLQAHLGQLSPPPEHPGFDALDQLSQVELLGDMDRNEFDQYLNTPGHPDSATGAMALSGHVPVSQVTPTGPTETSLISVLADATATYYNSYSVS
UniProt Q00796: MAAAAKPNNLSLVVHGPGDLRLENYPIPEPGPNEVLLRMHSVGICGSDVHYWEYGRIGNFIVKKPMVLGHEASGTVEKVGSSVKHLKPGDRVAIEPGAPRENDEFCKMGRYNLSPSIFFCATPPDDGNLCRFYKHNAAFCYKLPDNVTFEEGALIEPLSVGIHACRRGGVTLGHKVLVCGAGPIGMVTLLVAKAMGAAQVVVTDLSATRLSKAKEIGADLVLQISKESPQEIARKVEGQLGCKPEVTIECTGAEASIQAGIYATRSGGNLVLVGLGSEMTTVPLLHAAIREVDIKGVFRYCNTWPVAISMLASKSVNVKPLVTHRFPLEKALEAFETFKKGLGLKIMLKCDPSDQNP
UniProt Q15506: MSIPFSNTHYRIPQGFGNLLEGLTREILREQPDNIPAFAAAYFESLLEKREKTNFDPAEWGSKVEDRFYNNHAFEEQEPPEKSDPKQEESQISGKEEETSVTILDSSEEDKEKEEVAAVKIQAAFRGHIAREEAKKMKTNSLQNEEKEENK
UniProt Q8WVK2: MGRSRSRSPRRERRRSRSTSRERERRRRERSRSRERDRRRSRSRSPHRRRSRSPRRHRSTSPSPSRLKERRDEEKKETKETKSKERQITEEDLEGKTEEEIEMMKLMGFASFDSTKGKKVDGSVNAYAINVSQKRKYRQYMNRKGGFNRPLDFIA
UniProt O60271: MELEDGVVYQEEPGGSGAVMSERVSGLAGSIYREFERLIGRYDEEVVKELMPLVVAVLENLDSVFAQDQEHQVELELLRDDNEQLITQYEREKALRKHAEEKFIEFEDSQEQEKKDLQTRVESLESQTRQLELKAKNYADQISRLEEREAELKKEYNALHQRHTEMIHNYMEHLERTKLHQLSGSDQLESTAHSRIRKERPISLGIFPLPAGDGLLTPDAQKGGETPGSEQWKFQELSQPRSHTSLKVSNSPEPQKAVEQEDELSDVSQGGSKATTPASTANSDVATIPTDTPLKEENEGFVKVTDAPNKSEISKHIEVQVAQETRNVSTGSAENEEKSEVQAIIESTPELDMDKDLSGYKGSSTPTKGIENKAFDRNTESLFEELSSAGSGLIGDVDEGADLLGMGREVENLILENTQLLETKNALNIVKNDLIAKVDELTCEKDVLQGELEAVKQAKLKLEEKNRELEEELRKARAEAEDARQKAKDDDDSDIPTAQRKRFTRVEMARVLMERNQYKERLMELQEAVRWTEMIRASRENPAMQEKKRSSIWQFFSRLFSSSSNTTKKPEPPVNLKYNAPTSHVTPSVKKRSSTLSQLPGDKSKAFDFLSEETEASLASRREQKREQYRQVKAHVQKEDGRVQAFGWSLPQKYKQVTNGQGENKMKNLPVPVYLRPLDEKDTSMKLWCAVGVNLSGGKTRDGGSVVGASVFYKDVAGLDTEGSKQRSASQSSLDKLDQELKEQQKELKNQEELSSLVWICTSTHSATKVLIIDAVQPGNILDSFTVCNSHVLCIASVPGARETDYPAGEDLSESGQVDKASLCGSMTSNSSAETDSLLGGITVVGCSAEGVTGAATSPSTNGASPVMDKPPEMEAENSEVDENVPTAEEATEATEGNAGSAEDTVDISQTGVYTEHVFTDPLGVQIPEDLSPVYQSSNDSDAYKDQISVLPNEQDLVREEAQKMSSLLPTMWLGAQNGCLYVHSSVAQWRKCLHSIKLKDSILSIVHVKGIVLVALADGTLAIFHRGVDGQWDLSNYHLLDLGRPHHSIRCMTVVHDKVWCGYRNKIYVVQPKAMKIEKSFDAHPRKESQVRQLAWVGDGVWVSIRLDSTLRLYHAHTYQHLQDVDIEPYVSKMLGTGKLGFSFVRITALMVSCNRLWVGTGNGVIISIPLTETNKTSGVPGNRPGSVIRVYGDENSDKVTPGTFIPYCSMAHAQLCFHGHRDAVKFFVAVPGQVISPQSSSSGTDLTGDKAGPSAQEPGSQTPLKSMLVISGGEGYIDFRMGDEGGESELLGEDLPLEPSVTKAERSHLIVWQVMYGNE

The list shows a part of the results.

What all share (assay): log2 fold change, soluble protein after heating vs DMSO (PISA); higher = thermal stabilisation; K562 lysate, 10 uM; active = over 0.2 and 3.5 SD of the protein, either way, in both replicates (recomputed)
Compound in experiment [1]: C1=CC=C(C=C1)[C@H](COC2=CC3=C(C=C2)NC(=O)N3)NC(=O)C4=CC=CN(C4=O)CC5=CC(=C(C=C5)F)F
The procedure, abridged:
(§1)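 Values give the log-two fold change in thermal stability against solvent controls, from duplicates. Crude K562 extract at 1 mg/mL protein, made by dounce homogenisation in PBS pH 7.4 with 1 mM MgCl2, was treated with 10 μM compound for 30 min. After 3 min heating across 48°C-58°C, aliquots were pooled, adjusted to 0.5% NP-40 at 4°C and centrifuged at 21,000xg for 90 min. The supernatant was measured by TMTpro 16plex LC-MS/MS with channel sums equalised.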

Compound in experiment [2]: CC1=C(SC2=C1C(=N[C@H](C3=NN=C(N32)C)CC(=O)N)C4=CC=C(C=C4)Cl)C
An outline of the steps:
as §1

Compound in experiment [3]: CC1=C2C(=CC=C1)N=C(N(C2=O)C3=CC=CC=C3C)CN4C=NC5=C(N=CN=C54)N
An outline of the steps:
as §1

Compound in experiment [4]: Cc1sc2c(c1C)C(c1ccc(Cl)cc1)=N[C@@H](CC(=O)OC(C)(C)C)c1nnc(C)n1-2
An outline of the steps: as §1

Compound in experiment [5]: c1ccc([C@@H]2C[C@H]2NC2CCNCC2)cc1
An outline of the steps:
as §1

Turning to SMC6 (UniProt Q96SB8), the log2 fold change is inactive: -0.049 in experiment [1]; inactive: 0.006 in experiment [2]; inactive: 0.014 in experiment [3]; inactive: -0.036 in experiment [4]; inactive: -0.047 in experiment [5].
As for SMYD2 (UniProt Q9NRG4), the log2 fold change was inactive: -0.008 in experiment [1]; inactive: -0.007 in experiment [2]; inactive: -0.009 in experiment [3]; inactive: 0.015 in experiment [4]; inactive: 0.034 in experiment [5].
Take SOX6 (UniProt P35712): the log2 fold change is inactive: 0.031 in experiment [1]; inactive: -0.255 in experiment [2]; inactive: -0.253 in experiment [3]; inactive: 0.144 in experiment [4]; inactive: 0.004 in experiment [5].
For SMARCC2 (UniProt Q8TAQ2) the same measures were inactive: -0.001, inactive: 0.019, inactive: 0.02, inactive: -0.01 and inactive: 0.012.
As for SNTB2 (UniProt Q13425), the log2 fold change was inactive: 0.003 in experiment [1]; inactive: -0.012 in experiment [2]; inactive: 0.012 in experiment [3]; inactive: -0.011 in experiment [4]; inactive: -0.003 in experiment [5].
In the case of SMC3 (UniProt Q9UQE7), the log2 fold change was inactive: -0.002 in experiment [1]; inactive: 0.011 in experiment [2]; inactive: -0.011 in experiment [3]; inactive: 0.037 in experiment [4]; inactive: 0.022 in experiment [5].
In the case of SORBS3 (UniProt O60504), the log2 fold change was inactive: 0.047 in experiment [1]; inactive: 0.081 in experiment [2]; inactive: -0.049 in experiment [3]; inactive: 0.028 in experiment [4]; inactive: 0.022 in experiment [5].
With SMARCD2 (UniProt Q92925), the log2 fold change is inactive: 0.017 in experiment [1]; inactive: 0.013 in experiment [2]; inactive: 0.004 in experiment [3]; inactive: 0.023 in experiment [4]; inactive: 0.004 in experiment [5].
On to SNAPC4 (UniProt Q5SXM2), for which the log2 fold change is inactive: -0.12 in experiment [1], inactive: 0.05 in experiment [2], inactive: 0.083 in experiment [3] and inactive: 0.021 in experiment [5].
For the target SMARCAD1 isoform 2 (UniProt Q9H4L7), the log2 fold change in experiment [1] was inactive: -0.006; in experiment [2] it was inactive: -0.036; in experiment [3], inactive: 0.014; in experiment [4], inactive: 0.014; in experiment [5], inactive: 0.035.
For the target SMC5 (UniProt Q8IY18), the log2 fold change in experiment [1] is inactive: 0.01; in experiment [2], inactive: 0; in experiment [3] it was inactive: -0.016; in experiment [4] it was inactive: -0.026; in experiment [5] it was inactive: -0.01.
On to SP100 isoform 4 (UniProt P23497), for which the log2 fold change in experiment [1] was inactive: 0.043; in experiment [2] it was inactive: -0.007; in experiment [3], inactive: -0.009; in experiment [4], inactive: 0.007; in experiment [5], inactive: -0.014.
For the target SMARCA2 (UniProt P51531), the log2 fold change in experiment [1] was inactive: 0.079; in experiment [2], inactive: 0; in experiment [3] it was inactive: -0.041; in experiment [4], inactive: 0.058; in experiment [5] it was inactive: 0.081.
In the case of SNRPG (UniProt P62308), the log2 fold change in experiment [1] was inactive: 0.005; in experiment [2], inactive: -0.002; in experiment [3], inactive: 0.007; in experiment [4], inactive: -0.057; in experiment [5], inactive: -0.113.
Turning to SNRPC (UniProt P09234), the log2 fold change in experiment [1] is inactive: 0.096; in experiment [2], inactive: -0.087; in experiment [3], inactive: -0.021; in experiment [4], inactive: -0.001; in experiment [5], inactive: -0.015.
On to SOD3 (UniProt P08294), for which the log2 fold change in experiment [1] is inactive: 0.128; in experiment [2], inactive: -0.118; in experiment [3], inactive: 0.025; in experiment [5], inactive: 0.009.
For the target SNX1 (UniProt Q13596), the log2 fold change was inactive: -0.011 in experiment [1]; inactive: 0.002 in experiment [2]; inactive: -0.012 in experiment [3]; inactive: 0.002 in experiment [4]; inactive: 0.024 in experiment [5].
SNX33 (UniProt Q8WV41): the log2 fold change is inactive: -0.227 in experiment [1], inactive: -0.008 in experiment [2] and inactive: 0.047 in experiment [4].
In the case of SOX7 isoform 2 (UniProt Q9BT81), the log2 fold change in experiment [1] was inactive: 0.039; in experiment [2] it was inactive: 0.022; in experiment [3] it was inactive: 0.118; in experiment [5], inactive: 0.131.
Turning to SNAP91 (UniProt O60641), the log2 fold change in experiment [1] is inactive: 0.046; in experiment [2], inactive: -0.09; in experiment [3], inactive: -0.005; in experiment [4], inactive: -0.052; in experiment [5], inactive: 0.015.
SORD (UniProt Q00796): the log2 fold change in experiment [1] is inactive: 0.017; in experiment [2], inactive: -0.004; in experiment [3], inactive: -0.015; in experiment [4] it was inactive: -0.007; in experiment [5], inactive: 0.013.
Consider SPA17 (UniProt Q15506), for which the log2 fold change in experiment [1] is inactive: 0.057; in experiment [2] it was inactive: -0.064; in experiment [3], inactive: -0.006; in experiment [4], inactive: -0.132; in experiment [5], inactive: -0.364.
Take SNRNP27 (UniProt Q8WVK2): the log2 fold change in experiment [1] was inactive: 0.015; in experiment [2], inactive: -0.037; in experiment [3], inactive: -0.012; in experiment [4], inactive: -0.035; in experiment [5] it was inactive: 0.053.
For the target SPAG9 isoform 4 (UniProt O60271), the log2 fold change in experiment [1] is inactive: -0.021; in experiment [2], inactive: -0.053; in experiment [3], inactive: -0.17; in experiment [5] it was inactive: 0.001.
As to SMARCA4 (UniProt P51532), the log2 fold change in experiment [1] was inactive: -0.034; in experiment [2] it was inactive: 0.016; in experiment [3] it was inactive: 0.003; in experiment [4] it was inactive: 0.014; in experiment [5], inactive: 0.055.
For SOAT1 (UniProt P35610), the log2 fold change is inactive: 0.041 in experiment [1]; inactive: -0.002 in experiment [2]; inactive: -0.008 in experiment [3]; active: 0.282 in experiment [4]; inactive: -0.06 in experiment [5].
Turning to SMARCD1 (UniProt Q96GM5), the log2 fold change in experiment [1] was inactive: 0.018; in experiment [2], inactive: 0.021; in experiment [3], inactive: 0.037; in experiment [4], inactive: -0.006; in experiment [5], inactive: 0.006.
